# Reference: PubChem BioAssay AID662 (National Center for Advancing Translational Sciences (NCATS), 2007)
# The list shows a part of the results. The main result of the screen is listed elsewhere. These columns were measured beside it and carry no call. Compounds called inactive in the main read-out are mostly missing here. Potencies come from curve fits of mixed quality, noted in brackets.
# Assay: Cell signaling CRE-BLA (Fsk stim)
# Settings: CHO CRE-bla reporter (cAMP response element driving beta-lactamase), forskolin EC10, beta-lactamase ratio; measured here: 460 nm blue channel
# Outline: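 Modulation of forskolin signalling: compounds in titration series added with EC10 NKH 477 to CHO cells carrying a CRE-driven beta-lactamase reporter, 3 h, 37C. CCF4 FRET ratio (460/530 nm, ex 405 nm) gives %activity and AC50.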
row,SMILES,AC50
1,CN1CC(=O)NC1=NC(=O)c1ccc(Cl)c(S(=O)(=O)N2CCCCCC2)c1,"5.01 µM [falling, single point]"
2,CCN(CC)c1ccc2c(c1)C(=O)N(C)C2=O,"10 µM [rising, partial curve]"
3,Clc1ccc(Cc2nn3c(Cn4nnc5ccccc54)nnc3s2)cc1,"12.6 µM [rising, single point]"
4,CC(C)c1ccc2c([Si](C)(C)C)c3c(nc2c1)-c1cccc(=O)n1C3,"0.0631 µM [rising, full curve, poor fit]"
5,Nc1cccc(-c2nc3ccc(N)cc3s2)c1,"15.8 µM [rising, single point]"
6,O=C(O)CCCCCC[C@@H]1C(=O)NC(=O)N1CC[C@@H](O)C1CCCCC1,"12.6 µM [rising, partial curve]"
7,CCOC(=O)c1c(N)sc(C(=O)N2CCCCCC2)c1C,"10 µM [rising, partial curve]"
8,CC1=C(C)CS(=O)N(S(=O)(=O)c2ccc(Cl)cc2)C1 (stereo not drawn),"10 µM [falling, partial curve]"
9,O=C(c1cc(S(=O)(=O)N2CCCCC2)ccc1F)N1CCCCC1,"5.01 µM [falling, single point]"
10,CN1/C(=N\O)c2cccc3cccc1c23,"12.6 µM [rising, partial curve]"
11,Cc1ccc(-n2c(SCC(=O)NCc3ccco3)nnc2-c2cccnc2)c(C)c1,"12.6 µM [falling, single point]"
12,O=C(Nc1ccc(F)cc1)Nc1ccc(Cl)cn1,"12.6 µM [falling, partial curve]"
13,CCOC(=O)c1csc(NC(=O)CSc2nnnn2CC)n1,"5.01 µM [rising, single point]"
14,CCCC[C@H]1C[C@@H]1[C@@H]1N(C(C)=O)[C@H](c2cccc(OC)c2)CC12CC2,"25.1 µM [rising, single point]"
15,Cc1ccc(-c2c(C#N)c(N)nc3c2CCCCC3)o1,"3.16 µM [rising, full curve]"
16,COc1ccc(N2CCN(C(=O)CSc3nc4cc(OC)c(OC)cc4cc3C#N)CC2)cc1,"5.01 µM [rising, partial curve]"
17,O=C(NCCN1CCN(c2ccccc2)CC1)C1CCN(S(=O)(=O)c2cccs2)CC1,"0.126 µM [falling, partial curve]"
18,Nc1[nH]ncc1C(=O)Nc1cccc(C(F)(F)F)c1,"10 µM [falling, partial curve, poor fit]"
19,CCOC(=O)c1c(NC(=O)CSc2nnc(C)s2)sc2c1CCN(C)C2,"10 µM [rising, partial curve]"
20,O=C(Nc1ccc(F)cc1F)c1cc(-c2ccco2)on1,"0.00398 µM [falling, full curve, poor fit]"
21,CCc1c(C)nc(SCC(=O)Nc2cccc(Br)c2)[nH]c1=O,"10 µM [rising, partial curve]"
22,CCOC(=O)CNS(=O)(=O)c1ccc(S(=O)(=O)N2CCCC2)cc1,"2.51 µM [falling, partial curve]"

row,SMILES,AC50
1,COc1ccc(N2CCN(C(=O)c3ccc(C)cc3Cl)CC2)cc1,"0.00316 µM [rising, full curve, poor fit]"
2,COc1ccc(Oc2ncc3nc(-c4ccc(OC)cc4)c(=O)n(CCC#N)c3n2)cc1,"7.94 µM [rising, partial curve]"
3,CC(C)c1nc(N2CCN(C(=O)c3ccccc3)CC2)c(C#N)c2c1COC(C)(C)C2,"2 µM [rising, full curve]"
4,CN(C/C(O)=C(\C#N)c1ccccc1)C1CCCCC1,"0.00794 µM [rising, full curve, poor fit]"
5,O=C(CC1SC(=NC2CCCCC2)NC1=O)Nc1ccccc1 (stereo not drawn),"3.98 µM [rising, single point]"
6,CC1=C(C(=O)Nc2ccccc2)C(c2ccc(C)o2)n2c(s/c(=C\c3ccco3)c2=O)=N1 (stereo not drawn),"7.94 µM [falling, partial curve]"
7,Cc1ccc(Cl)cc1-n1c(=O)cc(N2CCN(C(=O)c3ccco3)CC2)[nH]c1=O,"1 µM [falling, partial curve]"
8,CN(CC(=O)Nc1ccc(Cl)cc1)CC(=O)Nc1cc(Cl)ccc1C#N,"12.6 µM [falling, partial curve]"
9,CCOC(=O)CC(=O)CSc1nc(-c2cccnc2)ccc1C#N,"12.6 µM [rising, partial curve]"
10,COc1cccc(Nc2ncc3nc(-c4cc(F)cc(F)c4)c(=O)n(CCC#N)c3n2)c1,"1.58 µM [rising, full curve]"
11,Cn1cc(C(=O)N2CCN(C(=O)c3ccco3)CC2)c2c3ccccc3n(C)c2c1=O,"0.1 µM [falling, full curve]"
12,CCOC(=O)C1=C(c2ccccc2)N2CCS(=O)(=O)N=C2S1,"5.01 µM [rising, partial curve]"
13,CCOC(=O)Cn1nnnc1C(C(C)C)N(Cc1cc2c(C)cc(C)cc2[nH]c1=O)C1CCCC1 (stereo not drawn),"3.98 µM [rising, partial curve]"
14,O=S(=O)(Cc1ccccc1)N1CCCC1,"5.01 µM [rising, single point]"
15,CCOC(=O)N1CCC(c2[nH][nH]c(=O)c2C)CC1,"0.00398 µM [falling, full curve, poor fit]"
16,Cc1c(C(=O)NCCN2CCOCC2)sc2nc(-c3ccc(F)cc3)cn12,"12.6 µM [rising, single point]"
17,CCc1ccc(NC(=O)Cn2c(=O)n(CCCC(=O)NCc3ccco3)c(=O)c3ccccc32)cc1,"25.1 µM [rising, single point]"
18,Cc1ccc2nc(NCCCN3CCOCC3)c(C=NCCCN3CCOCC3)c(=O)n2c1,"10 µM [rising, partial curve]"
19,Oc1ccccc1OCc1nc2ccccc2s1,"0.0794 µM [rising, full curve]"
20,O=C(NCC1CCCO1)C(C(=O)c1ccccc1)n1cc(Cl)ccc1=O (stereo not drawn),"12.6 µM [falling, single point]"
21,CCOC(=O)N1CCC(Nc2ncnc3c2cnn3-c2ccc(C)cc2C)CC1,"20 µM [falling, single point]"

# Retrieved by structure from the entries so far, two records:
row,SMILES,AC50
14,CCCC[C@H]1C[C@@H]1[C@@H]1N(C(C)=O)[C@H](c2cccc(OC)c2)CC12CC2,"25.1 µM [rising, single point]"
3,Clc1ccc(Cc2nn3c(Cn4nnc5ccccc54)nnc3s2)cc1,"12.6 µM [rising, single point]"
